# Experimental data published in US20160090556A1, “PRODUCTS COMPRISING MALODOR REDUCTION MATERIALS” (The Procter & Gamble Company, priority 2014, published 2016).
# Experiment: Melamine formaldehyde PMC leakage
# Conditions: not given
row,SMILES,Melamine formaldehyde PMC leakage (Comment Code J)
1,CCOC(=O)CC(O)(CC(=O)OCC)C(=O)OCC [Material 1091],J (Melamine formaldehyde PMC leakage less than or equal to 5%)
2,CC1CCC2=C1CC1CCC2(C)C1(C)C (stereo not shown) [Material 621],J (Melamine formaldehyde PMC leakage less than or equal to 5%)
3,C=C(C)[C@@H]1CCC2=CCC[C@@H](C)[C@]2(C)C1 [Material 1105],J (Melamine formaldehyde PMC leakage less than or equal to 5%)
4,C=C[C@](C)(O)CC[C@@H]1[C@@]2(C)CCCC(C)(C)[C@@H]2CC[C@@]1(C)O [Material 1028],J (Melamine formaldehyde PMC leakage less than or equal to 5%)
5,CC1=CCC2CC3C(C)CCC13C2(C)C (stereo not shown) [Material 696],J (Melamine formaldehyde PMC leakage less than or equal to 5%)
6,CCCCCC(=Cc1ccccc1)C(OCC)OCC [Material 723],J (Melamine formaldehyde PMC leakage less than or equal to 5%)
7,COc1ccc(COC(=O)Cc2ccccc2)cc1 [Material 663],J (Melamine formaldehyde PMC leakage less than or equal to 5%)
8,CCCCCCCCCCC=O [Material 1102],J (Melamine formaldehyde PMC leakage less than or equal to 5%)
9,C=C(C)C1CC=C(COC(C)=O)CC1 (stereo not shown) [Material 947],J (Melamine formaldehyde PMC leakage less than or equal to 5%)
10,CC1=C2CCC(C)C2CC(C(C)(C)O)CC1 (stereo not shown) [Material 920],J (Melamine formaldehyde PMC leakage less than or equal to 5%)
11,CC(C)CCCC(C)CCCC(C)C=O (stereo not shown) [Material 741],J (Melamine formaldehyde PMC leakage less than or equal to 5%)
12,C=CC=CC=CCCCCC [Material 876],J (Melamine formaldehyde PMC leakage less than or equal to 5%)
13,CCCC(=O)OCCc1ccccc1 [Material 831],J (Melamine formaldehyde PMC leakage less than or equal to 5%)
14,C=CCOC(=O)CCC1CCCCC1 [Material 746],J (Melamine formaldehyde PMC leakage less than or equal to 5%)
15,C=C1C2CCC(C)(OCC)C1CCC2(C)C (stereo not shown) [Material 606],J (Melamine formaldehyde PMC leakage less than or equal to 5%)
16,C/C=C/c1cc(OC)c(OC)cc1OC [Material 924],J (Melamine formaldehyde PMC leakage less than or equal to 5%)
17,O=C(Oc1ccccc1)c1ccccc1 [Material 965],J (Melamine formaldehyde PMC leakage less than or equal to 5%)
18,C=C(C)C1CCC2(C)CCC=C(C)C2C1 (stereo not shown) [Material 774],J (Melamine formaldehyde PMC leakage less than or equal to 5%)
19,CC(C)Cc1ccc(CC(C)C=O)cc1 (stereo not shown) [Material 1033],J (Melamine formaldehyde PMC leakage less than or equal to 5%)
20,CC(C)c1cccc(C(C)CC=O)c1 (stereo not shown) [Material 914],J (Melamine formaldehyde PMC leakage less than or equal to 5%)
21,CC/C(=C/CC1CC=C(C)C1(C)C)CO (stereo not shown) [Material 1024],J (Melamine formaldehyde PMC leakage less than or equal to 5%)
22,CCCCCCCCCCO [Material 868],J (Melamine formaldehyde PMC leakage less than or equal to 5%)
23,CC1=CC[C@@H]2[C@@]3(C)CCCC(C)(C)[C@@H]3CC[C@@]2(C)O1 [Material 1029],J (Melamine formaldehyde PMC leakage less than or equal to 5%)
24,CC1(C)CCCC2(C)C1CCC1(C)OCCC12 (stereo not shown) [Material 561],J (Melamine formaldehyde PMC leakage less than or equal to 5%)

# Same assay, conditions: class code letter within Comment Code
row,SMILES,Melamine formaldehyde PMC leakage (Comment Code J)
1,CCCCCCCCCC(C)=O [Material 102],J (Melamine formaldehyde PMC leakage less than or equal to 5%)
2,CC1(C)CCc2ccc(CCC=O)cc21 [Material 260],J (Melamine formaldehyde PMC leakage less than or equal to 5%)
3,CCCCCCCC1CCC(=O)O1 (racemic) [Material 316],J (Melamine formaldehyde PMC leakage less than or equal to 5%)
4,C=CC(C)(CCC=C(C)C)OC(=O)c1ccccc1 (stereo not shown) [Material 152],J (Melamine formaldehyde PMC leakage less than or equal to 5%)
5,CC1COCc2cc3c(cc21)C(C)(C)C(C)C3(C)C (stereo not shown) [Material 335],J (Melamine formaldehyde PMC leakage less than or equal to 5%)
6,CCOC(=O)C1OC1(C)c1ccccc1 (stereo not shown) [Material 377],J (Melamine formaldehyde PMC leakage less than or equal to 5%)
7,CCC(=O)OCC(C)(C)OC(C)C1CCCC(C)(C)C1 (stereo not shown) [Material 285],J (Melamine formaldehyde PMC leakage less than or equal to 5%)
8,CCCCCCCC1CCCC1=O (stereo not shown) [Material 362],J (Melamine formaldehyde PMC leakage less than or equal to 5%)
9,CCCCCCCC1CCCC(=O)O1 (stereo not shown) [Material 463],J (Melamine formaldehyde PMC leakage less than or equal to 5%)
10,O=C1CCC=CCCCCCCCCCC1 [Material 372],J (Melamine formaldehyde PMC leakage less than or equal to 5%)
11,CC(O)C(C)/C=C1\C[C@H]2C[C@@H]1[C@@H]1C=CC[C@H]21 (stereo partly shown) [Material 359],J (Melamine formaldehyde PMC leakage less than or equal to 5%)
12,CC/C=C/CCOC(CC)OC (stereo not shown) [Material 167],J (Melamine formaldehyde PMC leakage less than or equal to 5%)
13,CCCCCCCCCCCCCC(=O)OC [Material 104],J (Melamine formaldehyde PMC leakage less than or equal to 5%)
14,CC(C)(O)CCCC1=CCC(C=O)CC1 (stereo not shown) [Material 143],J (Melamine formaldehyde PMC leakage less than or equal to 5%)
15,CC(=O)OCCC1=CCC2CC1C2(C)C (stereo not shown) [Material 47],J (Melamine formaldehyde PMC leakage less than or equal to 5%)
16,CCOC(C=C(C)CCC=C(C)C)OCC [Material 521],J (Melamine formaldehyde PMC leakage less than or equal to 5%)
17,C=CC1(C)Cc2occ(C)c2CC1C(=C)C (stereo not shown) [Material 488],J (Melamine formaldehyde PMC leakage less than or equal to 5%)
18,CCC=CCC1C(=O)CCC1CC(=O)OC (stereo not shown) [Material 112],J (Melamine formaldehyde PMC leakage less than or equal to 5%)
19,O=C1CCCCCCCC=CCCCCCCO1 [Material 242],J (Melamine formaldehyde PMC leakage less than or equal to 5%)
20,CCCCCCCCCCCCCC(=O)OCC [Material 388],J (Melamine formaldehyde PMC leakage less than or equal to 5%)
21,CC/C=C\CCOC(=O)C/C=C\CC [Material 534],J (Melamine formaldehyde PMC leakage less than or equal to 5%)
22,CCCCCC(=O)OCc1ccco1 [Material 338],J (Melamine formaldehyde PMC leakage less than or equal to 5%)
23,CCCCCCCC(=O)OCc1ccco1 [Material 336],J (Melamine formaldehyde PMC leakage less than or equal to 5%)
24,CCC(C)C1(C)COC(C2CCC(C)=CC2C)OC1 (stereo not shown) [Material 184],J (Melamine formaldehyde PMC leakage less than or equal to 5%)
25,CCCCCCC(C=O)=Cc1ccccc1 [Material 269],J (Melamine formaldehyde PMC leakage less than or equal to 5%)
26,CCCCCCCCC(=O)OCC [Material 386],J (Melamine formaldehyde PMC leakage less than or equal to 5%)

# Same assay, conditions: code J of the Comment Code column, Table 1
row,SMILES,Comment Code: Melamine formaldehyde PMC leakage
1,CC1(C)C2CCC3(C2)C1C1(CCC3(C)C)OCCO1 (stereo not shown) [Material 1144],J (Melamine formaldehyde PMC leakage less than or equal to 5%)
2,COC1C=CC2C3CCC(C3)C12 (stereo not shown) [Material 1120],J (Melamine formaldehyde PMC leakage less than or equal to 5%)
3,COc1cc(CCC(C)=O)ccc1O [Material 1146],J (Melamine formaldehyde PMC leakage less than or equal to 5%)

# Same assay, conditions: code letter J
row,SMILES,Comment Code: Melamine formaldehyde PMC leakage
1,CC1(C)C2CCC3(C2)C1C1(CCC3(C)C)OCCO1 (stereo not shown) [Material 1144],J (Melamine formaldehyde PMC leakage less than or equal to 5%)
2,CC1(C)CCc2ccc(CCC=O)cc21 [Material 260],J (Melamine formaldehyde PMC leakage less than or equal to 5%)
3,CC1CCC2=C1CC1CCC2(C)C1(C)C (stereo not shown) [Material 621],J (Melamine formaldehyde PMC leakage less than or equal to 5%)
4,CC1COCc2cc3c(cc21)C(C)(C)C(C)C3(C)C (stereo not shown) [Material 335],J (Melamine formaldehyde PMC leakage less than or equal to 5%)
5,C=C[C@](C)(O)CC[C@@H]1[C@@]2(C)CCCC(C)(C)[C@@H]2CC[C@@]1(C)O [Material 1028],J (Melamine formaldehyde PMC leakage less than or equal to 5%)
6,CC/C=C\CCOC(=O)CCCC [Material 535],J (Melamine formaldehyde PMC leakage less than or equal to 5%)
7,CC1=CCC2CC3C(C)CCC13C2(C)C (stereo not shown) [Material 696],J (Melamine formaldehyde PMC leakage less than or equal to 5%)
8,CCc1ccccc1CC(C)(C)C=O [Material 354],J (Melamine formaldehyde PMC leakage less than or equal to 5%)
9,O=C(OCc1ccccc1)c1ccccc1O [Material 641],J (Melamine formaldehyde PMC leakage less than or equal to 5%)
10,CC(O)C(C)/C=C1\C[C@H]2C[C@@H]1[C@@H]1C=CC[C@H]21 (stereo partly shown) [Material 359],J (Melamine formaldehyde PMC leakage less than or equal to 5%)
11,CC(=O)O.CCOc1cc(C=O)ccc1O [Material 379],J (Melamine formaldehyde PMC leakage less than or equal to 5%)
12,CCOC(=O)OC1CCCCC1C(C)(C)C (stereo not shown) [Material 355],J (Melamine formaldehyde PMC leakage less than or equal to 5%)
13,C=CC1(C)Cc2occ(C)c2CC1C(=C)C (stereo not shown) [Material 488],J (Melamine formaldehyde PMC leakage less than or equal to 5%)
14,CC(C)=CCC/C(C)=C/COC=O [Material 306],J (Melamine formaldehyde PMC leakage less than or equal to 5%)
15,CC/C(=C/CC1CC=C(C)C1(C)C)CO (stereo not shown) [Material 1024],J (Melamine formaldehyde PMC leakage less than or equal to 5%)
16,CC(=O)OC(C)CC(C)(C)c1ccccc1 (stereo not shown) [Material 1134],J (Melamine formaldehyde PMC leakage less than or equal to 5%)
17,CC1=CC[C@@H]2[C@@]3(C)CCCC(C)(C)[C@@H]3CC[C@@]2(C)O1 [Material 1029],J (Melamine formaldehyde PMC leakage less than or equal to 5%)
